This series concerns Arabidopsis thaliana leaves. The series is described as follows: Non-targeted metabolomics of Arabidopsis thaliana leaves treated with short peptide. The note with it: vs GFP control. It counts as in vivo. As to the method:
In this experiment, the materials used for metabonomics analysis and phytohormone detection are Arabidopsis thaliana samples with consistent growth status. Synthetic short peptide of GSS1-PI with the corresponding concentration and mass was weighed and dissolved in 0.1% DMSO to obtain a 0.01 mg/mL treatment solution. A wild-type Arabidopsis thaliana plant of about four weeks old was taken, two cotyledons were collected and mechanically damaged to obtain three small holes, 2 μL of the GSS1-PI solution was added dropwise into each small hole, while GFP solution was used as the control group. […]
After the experiment was completed, the relevant data files were imported into the database search software for analysis and processing, and the residence time, mass-to-charge ratio and other related parameters of each metabolite were simply screened and checked. […] Then peak extraction and peak area quantification were carried out to integrate the target ions, and then ion peaks were predicted by molecular formula and compared with local data. In order to remove the interference of background ions, the original quantitative results were standardized and blank sample controls were added. Finally, the relative quantitative results of the relevant metabolites were obtained and identified. […]

As for “PDYKQKLRDSKAWESLETIGIPLDADVM (insect-derived short peptide) [GSS1-PI]”, the “number of differential metabolites accumulated” value by setting is: (24 h treatment) 27; (48 h treatment) 40.

For the origin of these results see patent US20250197461A1, “Insect-derived short peptide for improving abscisic acid (ABA) content in cruciferous plant” (Gannan Normal University, priority 2023, published 2025).
